Source: paper PMC6180656
Results are given in words; binding and its absence hold for the method and conditions named. Binding seen in cells or lysates may run through a third protein. Some binding calls cover weakened binding; strength is not graded here. Sequences can lack the tags named with a protein.

Amino acid sequences for entries named in this document (tags omitted).
UniProt Q14008: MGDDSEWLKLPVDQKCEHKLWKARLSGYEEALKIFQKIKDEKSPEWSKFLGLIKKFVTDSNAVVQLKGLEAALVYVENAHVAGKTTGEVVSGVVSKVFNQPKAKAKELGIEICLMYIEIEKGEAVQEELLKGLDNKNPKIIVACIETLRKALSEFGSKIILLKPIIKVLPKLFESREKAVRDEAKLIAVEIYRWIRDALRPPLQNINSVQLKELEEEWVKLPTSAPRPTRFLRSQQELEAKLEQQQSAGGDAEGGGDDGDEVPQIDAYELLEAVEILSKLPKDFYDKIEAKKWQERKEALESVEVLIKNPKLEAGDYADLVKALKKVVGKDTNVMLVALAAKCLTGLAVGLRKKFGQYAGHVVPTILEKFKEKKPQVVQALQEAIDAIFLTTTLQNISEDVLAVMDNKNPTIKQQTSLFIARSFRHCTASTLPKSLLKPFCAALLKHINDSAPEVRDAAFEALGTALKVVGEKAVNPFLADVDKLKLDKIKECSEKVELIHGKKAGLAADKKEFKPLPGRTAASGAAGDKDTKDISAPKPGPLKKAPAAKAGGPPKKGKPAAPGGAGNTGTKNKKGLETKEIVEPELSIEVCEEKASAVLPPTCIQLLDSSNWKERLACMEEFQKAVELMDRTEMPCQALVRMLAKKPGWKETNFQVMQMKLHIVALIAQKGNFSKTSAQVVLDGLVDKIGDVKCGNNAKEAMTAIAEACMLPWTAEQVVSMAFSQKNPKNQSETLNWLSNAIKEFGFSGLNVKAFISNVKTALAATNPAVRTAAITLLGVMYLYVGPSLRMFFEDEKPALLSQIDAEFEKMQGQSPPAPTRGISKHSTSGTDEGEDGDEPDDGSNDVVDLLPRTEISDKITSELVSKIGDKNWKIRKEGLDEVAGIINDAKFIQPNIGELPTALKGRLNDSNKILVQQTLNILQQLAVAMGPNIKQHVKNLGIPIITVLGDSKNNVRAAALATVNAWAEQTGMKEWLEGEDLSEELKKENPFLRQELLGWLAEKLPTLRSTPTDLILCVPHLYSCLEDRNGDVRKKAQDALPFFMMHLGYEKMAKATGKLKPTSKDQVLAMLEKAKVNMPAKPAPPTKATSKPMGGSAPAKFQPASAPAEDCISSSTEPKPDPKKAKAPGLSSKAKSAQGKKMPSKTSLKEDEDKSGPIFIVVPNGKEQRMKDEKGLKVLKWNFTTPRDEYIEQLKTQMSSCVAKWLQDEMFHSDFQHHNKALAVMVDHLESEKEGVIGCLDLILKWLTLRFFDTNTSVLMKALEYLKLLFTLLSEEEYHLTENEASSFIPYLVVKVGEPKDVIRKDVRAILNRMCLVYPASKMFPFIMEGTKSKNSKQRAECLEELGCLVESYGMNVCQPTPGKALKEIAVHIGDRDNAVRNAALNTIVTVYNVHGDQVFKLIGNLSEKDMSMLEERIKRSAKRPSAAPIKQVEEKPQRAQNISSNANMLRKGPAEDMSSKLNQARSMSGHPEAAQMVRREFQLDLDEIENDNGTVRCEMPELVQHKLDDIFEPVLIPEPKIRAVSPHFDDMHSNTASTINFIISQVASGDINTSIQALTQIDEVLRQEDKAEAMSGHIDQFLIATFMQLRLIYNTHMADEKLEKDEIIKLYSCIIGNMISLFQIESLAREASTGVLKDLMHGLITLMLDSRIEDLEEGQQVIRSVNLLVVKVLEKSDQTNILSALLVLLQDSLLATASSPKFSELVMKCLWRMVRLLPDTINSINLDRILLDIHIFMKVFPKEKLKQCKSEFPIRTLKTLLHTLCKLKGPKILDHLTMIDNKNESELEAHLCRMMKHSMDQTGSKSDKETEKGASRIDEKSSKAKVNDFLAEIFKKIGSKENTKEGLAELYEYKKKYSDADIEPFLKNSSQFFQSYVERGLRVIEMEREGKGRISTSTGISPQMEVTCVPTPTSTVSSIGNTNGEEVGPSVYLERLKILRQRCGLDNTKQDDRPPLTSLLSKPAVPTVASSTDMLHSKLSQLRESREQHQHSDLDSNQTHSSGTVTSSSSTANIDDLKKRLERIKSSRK

How the values were obtained:
Flag-ARHGEF16 (human) = molecular target: T1, Flag-ARHGEF16 (human) (UniProt Q5VV41); assay: co-IP; pre-cleared cell lysate with Flag-ARHGEF16 incubated with anti-Flag magnetic beads, 4 h at 4 °C; lysis buffer 0.5% Lubrol-PX, 50 mM KCl, 2 mM CaCl2, 20% glycerol, 50 mM Tris-HCl pH 7.4; western blotting; U87 cells
T1 sequence: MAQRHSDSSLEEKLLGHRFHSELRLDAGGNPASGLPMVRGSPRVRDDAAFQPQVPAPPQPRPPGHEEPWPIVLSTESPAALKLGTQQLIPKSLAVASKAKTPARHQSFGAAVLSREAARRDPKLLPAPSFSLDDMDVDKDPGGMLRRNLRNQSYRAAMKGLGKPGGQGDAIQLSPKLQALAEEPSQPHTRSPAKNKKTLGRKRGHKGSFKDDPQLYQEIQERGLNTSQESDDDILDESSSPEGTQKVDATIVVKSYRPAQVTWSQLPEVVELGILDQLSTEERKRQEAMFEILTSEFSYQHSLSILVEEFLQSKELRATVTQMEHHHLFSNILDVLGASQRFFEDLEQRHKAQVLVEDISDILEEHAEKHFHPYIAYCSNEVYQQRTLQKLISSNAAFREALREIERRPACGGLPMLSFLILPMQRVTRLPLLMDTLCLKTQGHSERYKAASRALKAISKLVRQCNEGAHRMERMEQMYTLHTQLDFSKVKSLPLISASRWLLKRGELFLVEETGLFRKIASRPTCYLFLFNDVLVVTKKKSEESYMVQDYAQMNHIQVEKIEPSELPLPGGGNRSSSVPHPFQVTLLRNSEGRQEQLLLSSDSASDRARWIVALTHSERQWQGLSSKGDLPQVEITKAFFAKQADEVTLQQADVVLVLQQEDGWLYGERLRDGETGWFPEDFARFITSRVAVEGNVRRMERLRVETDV

[1] = molecular target: T2, Glutathione S-transferase (GST)-ARHGEF16 fusion protein (human) (UniProt Q5VV41); assay: pull-down; purified GST-ARHGEF16 immobilized on Glutathione Sepharose 4B beads, incubated with lysate from U87 cells; immunoblotting; only the target purified
T2 sequence: T1 sequence

Question: What does the source list for “Cytoskeleton-associated protein 5 (CKAP5) of U87 cells (from UniProt Q14008 1-2032)”?
Answer: binding (Flag-ARHGEF16 (human)): binds; binding [1]: binds
